Where “and” joins values, the source holds several entries; their conditions need not be identical. Equal values may be shown once. This list was built around the results that the source calls inconclusive (neither active nor inactive); the mix of calls is not that of the screen. For part of these data: Potencies beside an inconclusive call are fits to weak or partial responses and may not hold up. Calls of active or inactive are those of the source. Unless noted, the call rests on the fitted dose curve; in most records, active means well fitted curve in the direction sought with a large enough effect; inconclusive means small, poorly fitted or top-dose-only effect, or another doubt; inactive means no such curve, though single readings can be large; an effect the other way counts as inactive or inconclusive.
How the values were obtained:
[1] = Cytotoxicity counterscreen for NFkB agonists and antagonists (AID 624476)
[2] = qHTS of pediatric cancer cell lines to identify multiple opportunities for drug repurposing: Primary screen for TC32 cells (AID 1347089); further: nearly all actives have a fitted effect of over 60% in size
Procedure, shortened: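 In the primary qHTS, MIPE compounds were tested at 11 concentrations (0.78 nM to 46 µM) and NPC compounds at 8 (0.59 nM to 46 µM) on TC32 cells for 48 h. CellTiter-Glo luminescence gave viability.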

[3] = qHTS of pediatric cancer cell lines to identify multiple opportunities for drug repurposing: Primary screen for NB-EBc1 cells (AID 1347095)
Procedure, shortened: (§1)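 Viability was measured as metabolically active cells after 48 hours of treatment, read by CellTiter-Glo luminescence. Compounds were tested at multiple final concentrations, giving concentration-response curves.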

[4] = qHTS of pediatric cancer cell lines to identify multiple opportunities for drug repurposing: Primary screen for Saos-2 cells (AID 1347097); conditions: Saos-2 viability, CellTiter-Glo ATP luminescence, 48 h; activity change, negative = cytotoxic: at 46 µM (top of the series); further: nearly all actives have a fitted effect of over 40% in size
Procedure, shortened: as §1

[5] = qHTS of pediatric cancer cell lines to identify multiple opportunities for drug repurposing: Primary screen for control Hh wild type fibroblast cells (AID 1347106); further: nearly all actives have a fitted effect of over 55% in size;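 on activity change, negative = cytotoxic: a drop in luminescence marks cytotoxicity and a rise apparent proliferation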
Procedure, shortened: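 Cells (500-1,000/well) in growth media were settled 5 h at 37 degrees C, then given compounds for 48 h. Viability was read as CellTiter-Glo luminescence. Primary runs used MIPE at 11 points (0.78 nM-46 µM) and NPC at 8 points (0.59 nM-46 µM); follow-ups used 11 points.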

[6] = qHTS to identify inhibitors of the type 1 interferon - major histocompatibility complex class I in skeletal muscle: primary screen against the NCATS Mechanism Interrogation Plate v5.0 (MIPE) Libary (AID 1347411); conditions: iHSKM cells + IFN-b, HiBiT-tagged MHC-I luminescence, 24 h; series mostly up to 45.8 µM; further: nearly all actives have a fitted effect of over 65% in size
Procedure, shortened: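 Luminescence from CRISPR HiBit-tagged endogenous HLA-B in human myoblasts reported MHC class I level after 24 h of IFN-beta (4 ng/ml) plus compound. Compounds ran as 11-point 1:3 series, top 46 uM final.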

[7] = Primary qHTS for inhibitors of nuclear receptor binding SET domain protein 2 (NSD2) in an isogenic RCH-ACV NSD2 p.E1099K mutant (9B) (AID 1645876); further: nearly all actives have a fitted effect of over 70% in size
[8] = Quantitative High-Throughput drug screen in 47 multiple myeloma cell lines against the NCATS MIPE library collection: OCIMY7_PLB cell viability assay (AID 1918987); conditions: OCI-MY7 myeloma viability, CellTiter-Glo ATP, 48 h; viability (% of DMSO): at 45.8 µM (top of the series); further: nearly all actives have a fitted effect of over 65% in size
Procedure, shortened: (§2)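 qHTS format: cells plated (500/well), pin-dosed with MIPE 4.0 compounds, kept 48 h at 37 °C. Readout was CellTiter-Glo luminescence, median RLU.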

[9] = qHTS for identification of novel therapeutic agents for treatment of microphthalmiaassociated transcription factor (MiT) renal cell carcinoma (RCC) (AID 1963991; calls by dose curve); conditions: TFE3-RCC UOK109 viability, CellTiter-Glo, 48 h; active = Z-AUC below -0.8 in all three lines
Procedure, shortened: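 Curves over 11 concentrations were fitted to CellTiter-Glo luminescence, scaled between empty wells (0%) and DMSO (100%) viability. Cells were UOK109, UOK124 and UOK145 TFE3-fusion RCC lines at 500/well, exposed 48 hours at 37 C.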

MCC-26 = test: qHTS assay to identify novel small-molecules to repurpose for Merkel cell carcinoma treatment (AID 1296009); conditions: MCC and control cell lines, CellTiter-Glo viability, 72 h; series mostly up to 46 µM; further: nearly all actives have a fitted effect of over 60% in size
Procedure, shortened: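 Viability readout: ATP luminescence (CellTiter-Glo) after 72 hr drug exposure at 37 degree celsius. Dose-response format was 8 points for NPC and 11 points for MIPE; data normalized to in-plate controls.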

[10] = qHTS of pediatric cancer cell lines to identify multiple opportunities for drug repurposing: Primary screen for MG 63 (6-TG R) cells (AID 1347105); conditions: MG 63 (6-TG R) viability, CellTiter-Glo, 48 h; activity change, negative = cytotoxic: at 46 µM (top of the series) unless noted; further: nearly all actives have a fitted effect of over 50% in size
Procedure, shortened: as §1

[11] = Quantitative High-Throughput drug screen in 47 multiple myeloma cell lines against the NCATS MIPE library collection: H1112_PLB cell viability assay (AID 1918967; further: nearly all actives have a fitted effect of over 30% in size)
Procedure, shortened: (§3)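 Steps: seed 500 cells per well; pin-transfer MIPE 4.0 library; incubate 48 h at 37C, 5% CO2, humidified; add CellTiter-Glo, 5 min room temperature; read luminescence.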

[12] = Quantitative High-Throughput drug screen in 47 multiple myeloma cell lines against the NCATS MIPE library collection: KMS27_JCRB cell viability assay (AID 1918970); conditions: KMS27 myeloma cells, CellTiter-Glo ATP viability, 48 h; viability (% of DMSO): at 45.8 µM (top of the series); further: nearly all actives have a fitted effect of over 30% in size
Procedure, shortened: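 CellTiter-Glo luminescence after 48 h drug exposure at 37 °C; 500 cells/well, 1536-well format, pin-tool compound addition; DMSO = 100%, media-only = 0% viability.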

[13] = qHTS Assay for Identification of Small Molecule Antagonists for NFkB Signaling Pathway. (AID 624479; calls by dose curve;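 further: pathway stimulated with TNF alpha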)
[14] = qHTS of pediatric cancer cell lines to identify multiple opportunities for drug repurposing: Primary screen for SJ-GBM2 cells (AID 1347091)
Procedure, shortened: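 Eight- or eleven-point concentration series, 48 h treatment at 37 degrees C in growth media; readout CellTiter-Glo luminescence. Potency and efficacy were taken from the concentration-response curves.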

[15] = Quantitative High-Throughput drug screen in 47 multiple myeloma cell lines against the NCATS MIPE library collection: MMM1_PLB cell viability assay (AID 1918976); further: nearly all actives have a fitted effect of over 35% in size
Procedure, shortened: as §2

[16] = Quantitative High-Throughput drug screen in 47 multiple myeloma cell lines against the NCATS MIPE library collection: OPM2_DSMZ cell viability assay (AID 1919872); further: nearly all actives have a fitted effect of over 30% in size
Procedure, shortened: as §3

[17] = Quantitative High-Throughput drug screen in 47 multiple myeloma cell lines against the NCATS MIPE library collection: KMS28BM_JCRB cell viability assay (AID 1919874); further: nearly all actives have a fitted effect of over 35% in size
Procedure, shortened: as §2

[18] = qHTS of pediatric cancer cell lines to identify multiple opportunities for drug repurposing: Primary screen for SK-N-SH cells (AID 1347098); conditions: SK-N-SH viability, CellTiter-Glo luminescence, 48 h; activity change, negative = cytotoxic: at 57 µM (top of the series); further: nearly all actives have a fitted effect of over 65% in size
Procedure, shortened: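 Cells (500-1,000/well) rested 5 h, then received compounds for 48 h; metabolically active cells were measured by CellTiter-Glo luminescence. Final concentrations spanned up to 46 µM (MIPE, 11-point) or 0.59 nM-46 µM (NPC, 8-point) in primary screens, 11-point in follow-ups.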

[19] = qHTS of pediatric cancer cell lines to identify multiple opportunities for drug repurposing: Primary screen for NB1643 cells (AID 1347099); further: nearly all actives have a fitted effect of over 50% in size
Procedure, shortened: as §1
Potency means the concentration at half of the fitted maximal effect.

## COc1cc2nccc(Oc3ccc(NC(=O)NC4CC4)c(Cl)c3)c2cc1C(N)=O
[1]
  Potency: inconclusive: 33.2 µM [inhibitor, partial curve, poor fit]
[2]
  Potency: inconclusive: 33 µM [cytotoxic, single point]
[3]
  Potency: active: 0.0935 µM
[4]
  Potency: inconclusive: 2.96 µM [cytotoxic, partial curve]
[5]
  Potency: inconclusive: 2.96 µM [cytotoxic, full curve]
[6]
  Potency: inconclusive: 13.1 µM [inhibitor, partial curve]
[7]
  Potency: inconclusive: 578 nM [inhibitor, full curve]
[8]
  Potency: inconclusive: 14.8 µM [cytotoxic, partial curve, poor fit]
[9]
  Potency: inconclusive: 0.662 µM [falling, full curve]
MCC-26
  Potency: inconclusive: 18.7 µM [inhibitor, partial curve]

## O=C(O)c1ccc2cc(-c3ccc(O)c(C45CC6CC(CC(C6)C4)C5)c3)ccc2c1
[2]
  Potency: inconclusive: 0.587 µM [cytotoxic, full curve, poor fit]
[10]
  Potency: active: 0.296 µM
[6]
  Potency: inconclusive: 46.6 µM [inhibitor, single point]
[7]
  Potency: active: 934 nM
[11]
  Potency: active: 0.418 µM
[12]
  Potency: active: 0.187 µM

## CC[C@H](Nc1ncnc2nc[nH]c12)c1nc2cccc(F)c2c(=O)n1-c1ccccc1
[1]
  Potency: inconclusive: 18.7 µM [inhibitor, partial curve, poor fit]
[13]
  Potency: inactive
[2]
  Potency: inconclusive: 16.5 µM [cytotoxic, partial curve]
[14]
  Potency: inconclusive: 6.62 µM [cytotoxic, partial curve]
[5]
  Potency: inactive
[12]
  Potency: inconclusive: 0.235 µM [cytotoxic, full curve, poor fit]
[15]
  Potency: active: 18.7 µM
[8]
  Potency: active: 4.69 µM
[16]
  Potency: inconclusive: 23.5 µM [cytotoxic, partial curve, poor fit]
[17]
  Potency: inconclusive: 20.9 µM [cytotoxic, partial curve]

## CN1CCC(CNc2ccc3ncc(-c4cccc(OC(F)(F)F)c4)n3n2)CC1
[3]
  Potency: active: 18.7 µM
[4]
  Potency: active: 18.7 µM
[18]
  Potency: active: 7.64 µM
[19]
  Potency: active: 18.7 µM
[10]
  Potency: active: 23.5 µM
[5]
  Potency: active: 18.7 µM
[7]
  Potency: active: 2.58 µM and active: 4.68 µM
[12]
  Potency: active: 14.8 µM
[15]
  Potency: active: 18.7 µM
[17]
  Potency: active: 8.33 µM
[9]
  Potency: inconclusive: 18.7 µM [falling, partial curve]

## CCC(=C(c1ccccc1)c1ccc(OCCN(C)C)cc1)c1ccccc1
[1]
  Potency: inconclusive: 33.2 µM [inhibitor, single point]
[13]
  Potency: active: 21.1 µM
[14]
  Potency: inconclusive: 37.2 µM [cytotoxic, single point]
[3]
  Potency: inconclusive: 26.4 µM [cytotoxic, single point]
[18]
  Potency: inconclusive: 42.9 µM [cytotoxic, single point]
[19]
  Potency: inconclusive: 18.7 µM [cytotoxic, single point]
[11]
  Potency: inconclusive: 33.2 µM [cytotoxic, single point]
[12]
  Potency: active: 20.9 µM
[16]
  Potency: inconclusive: 0.0047 µM [cytotoxic, full curve, poor fit]
[9]
  Potency: inconclusive: 20.9 µM [falling, single point]

## CC(C)=CCCC(C)=CCCC(C)=CCSc1ccccc1C(=O)O
[1]
  Potency: inconclusive: 37.2 µM [inhibitor, single point]
[13]
  Potency: inconclusive: 29.8 µM [inhibitor, single point]
[2]
  Potency: inconclusive: 13.1 µM [cytotoxic, partial curve]
[14]
  Potency: active: 0.833 µM
[18]
  Potency: inconclusive: 17.1 µM [cytotoxic, partial curve]
[10]
  Potency: active: 3.72 µM
[5]
  Potency: active: 8.33 µM
[11]
  Potency: inconclusive: 11.8 µM [cytotoxic, partial curve]
[12]
  Potency: inconclusive: 0.418 µM [cytotoxic, full curve]
[8]
  Potency: inconclusive: 14.8 µM [cytotoxic, partial curve, poor fit]
[16]
  Potency: active: 4.18 µM
MCC-26
  Potency: inconclusive: 18.7 µM [inhibitor, single point]

## NC(=O)c1ncn([C@@H]2O[C@H](CO)[C@@H](O)[C@H]2O)c1N
[13]
  Potency: inactive
[19]
  Potency: inactive
[7]
  Potency: inconclusive: 26.6 µM [inhibitor, partial curve, poor fit] and inactive

## C/C(=C\C(=O)Nc1ccccc1C(=O)O)c1ccc2ccccc2c1
[1]
  Potency: inconclusive: 23.5 µM [inhibitor, single point]
[13]
  Potency: inconclusive: 29.8 µM [inhibitor, single point]
[6]
  Potency: inconclusive: 33 µM [inhibitor, single point]
[7]
  Potency: inconclusive: 16400 nM [inhibitor, single point]

From PubChem BioAssay (NCATS)
